In patent publication US20190177366A1:
No constants are given. Whether binding was seen depends on the method and setting. Some binding calls cover weakened binding; strength is not graded here.

Chains of the proteins cited; added tags and fusions are not shown. Lines headed by an entry give the natural chain unless they say otherwise; changes in a name come on top.
UniProt Q8NBP7: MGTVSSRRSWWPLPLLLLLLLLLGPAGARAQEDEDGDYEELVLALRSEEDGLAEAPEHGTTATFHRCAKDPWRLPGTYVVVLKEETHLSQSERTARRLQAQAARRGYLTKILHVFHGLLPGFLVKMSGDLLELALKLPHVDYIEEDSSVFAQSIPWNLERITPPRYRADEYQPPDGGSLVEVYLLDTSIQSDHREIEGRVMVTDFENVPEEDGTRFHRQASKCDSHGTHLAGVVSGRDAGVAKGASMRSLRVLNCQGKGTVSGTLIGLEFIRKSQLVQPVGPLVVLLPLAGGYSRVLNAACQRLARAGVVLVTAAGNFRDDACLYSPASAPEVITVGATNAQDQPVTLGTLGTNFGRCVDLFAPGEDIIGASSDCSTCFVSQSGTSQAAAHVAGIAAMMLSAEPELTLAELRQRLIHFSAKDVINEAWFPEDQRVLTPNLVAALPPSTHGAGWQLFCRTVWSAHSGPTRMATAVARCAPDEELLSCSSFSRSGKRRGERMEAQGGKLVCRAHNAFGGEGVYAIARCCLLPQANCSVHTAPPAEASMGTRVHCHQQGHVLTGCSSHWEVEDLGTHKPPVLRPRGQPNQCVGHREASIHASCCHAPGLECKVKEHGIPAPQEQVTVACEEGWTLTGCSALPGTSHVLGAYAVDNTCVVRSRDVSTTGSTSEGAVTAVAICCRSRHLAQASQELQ

Key:
[1] = target: proprotein convertase subtilisin/kexin type 9 (PCSK9) (human) (UniProt Q8NBP7); assay: phage spot ELISA
PCSK9ΔCRDΔhelix (human) = PCSK9ΔCRDΔhelix (human) (UniProt Q8NBP7); assay: crystal structure

| Binder | binding [1] | binding (PCSK9ΔCRDΔhelix (human)) |
| --- | --- | --- |
| TAFTSWEEYLDWVGSGDCNLWGDDGKYRLCF [SEQ ID NO 333] | binds | – |
| TAFTSWEEYLDWVGSGGVLGVGGMWIA [SEQ ID NO 335] | binds | – |
| TAFTSWEEYLDWVGSGQISYLRNA [SEQ ID NO 342] | binds | – |
| TAFTSWEEYLDWVGSGRCGLAWCVVLVDQ [SEQ ID NO 365] | binds | – |
| SGCRLPWNLQRIGLPC [SEQ ID NO 392] | binds | – |
| TVFTSWEEYLDWVGSGCWNLKRIGSQGC (N-terminal acetyl; C-terminal amide; disulfide C17-C28) [Compound 2] | – | binds |
| TVFTSWEEYLDWVGSGDLMPWNLVRIGLLR (N-terminal acetyl; C-terminal amide) [Compound 20] | – | binds |
| SGCFIPWNLQRIGLLC (free N-terminus; C-terminal amide; disulfide-constrained macrocycle) [Compound 26] | – | binds |
| CWNLKRIGSQGC (N-terminal acetyl; C-terminal amide; disulfide-cyclized) [Compound 21] | – | binds |
| SGCRLPWNLQRIGLPC (N-terminal acetyl; C-terminal amide; disulfide-constrained macrocycle) [Compound 30] | – | binds |
| CFIPWNLQRIGLLC (N-terminal acetyl; C-terminal amide; disulfide-constrained macrocycle) [Compound 31] | – | binds |
| CRLPWNLQRIGLPC (N-terminal acetyl; C-terminal amide; disulfide-constrained macrocycle) [Compound 32] | – | binds |
